In PMC5590874:
Results are given in words; binding and its absence hold for the method and conditions named. Binding calls can cover weak binding; strength is not graded here. Tags and fused reporters may be left off the sequences shown.

Target: T1, Immunoglobulin peptide … derived from the CH1 domain of immunoglobulin, labelled with lucifer yellow
T1 sequence (peptide, lucifer yellow covalently attached to a thiol group by iodoacetamide chemistry): HTFPAVLGSC
Assay: fluorescence polarisation; fluorescence anisotropy of the lucifer yellow-labelled peptide at a fixed 12.5 uM with increasing concentrations of BiP; excitation 430 nm, emission 482 nm; both purified

Which binding does the source give for “Binding immunoglobulin protein (BiP), unmodified” here?
The binding was “binds”.
